{"source": "PubChem BioAssay AID1259254 (NCATS, 2017)", "purpose": "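Gene knock-downs that lead to re-replication, shown by excess G2 DNA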 (primary screen)", "system": "human HCT116 colorectal cancer cells", "reagent": "single siRNA against human genes", "duration": "3 days", "read-out": "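Imaged Hoechst DNA stain sorts each cell into a cycle phase by DNA amount; per plate, G2 fraction set to 0% for non-targeting and 100% for GMNN siRNA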", "reading the numbers": "G2 robust z-score and G2 cells, % of GMNN control: higher = more G2 cells, more excess DNA replication", "active means": "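An siRNA counts as active if its G2 robust z-score lies at least 5 MADs above the screen median; here such calls match roughly 38% of GMNN control or more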", "note": "The deposit covers about 59,000 reagents; below is a random part of them. About 1,550 of all reagents (2.6%) were called active. 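G2 share is only a proxy for re-replication; each gene was hit by three separate siRNAs, and active genes were retested.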 Entries without a mark were called inactive. The numbers tell different reagents against one gene apart. Further read-outs or replicates are left out here. No sequences are given here. Not given: the amount of reagent."}
{"gene": "ZNF800", "siRNA no.": 1, "G2 robust z-score": -0.608, "G2 cells, % of GMNN control": -1.31}
{"gene": "ZNF800", "siRNA no.": 2, "G2 robust z-score": 0.554, "G2 cells, % of GMNN control": 6.86}
{"gene": "ZNF800", "siRNA no.": 3, "G2 robust z-score": -0.413, "G2 cells, % of GMNN control": 0.0637}
{"gene": "PLA2G15", "siRNA no.": 1, "G2 robust z-score": -0.557, "G2 cells, % of GMNN control": -0.95}
{"gene": "PLA2G15", "siRNA no.": 2, "G2 robust z-score": 0.158, "G2 cells, % of GMNN control": 4.08}
{"gene": "PLA2G15", "siRNA no.": 3, "G2 robust z-score": -1.53, "G2 cells, % of GMNN control": -7.83}
{"gene": "LRWD1", "siRNA no.": 1, "G2 robust z-score": -0.087, "G2 cells, % of GMNN control": 2.36}
{"gene": "LRWD1", "siRNA no.": 2, "G2 robust z-score": -0.566, "G2 cells, % of GMNN control": -1.01}
{"gene": "LRWD1", "siRNA no.": 3, "G2 robust z-score": -0.565, "G2 cells, % of GMNN control": -1.01}
{"gene": "NDUFV1", "siRNA no.": 1, "G2 robust z-score": -1.71, "G2 cells, % of GMNN control": -9.04}
{"gene": "NDUFV1", "siRNA no.": 2, "G2 robust z-score": -0.294, "G2 cells, % of GMNN control": 0.897}
{"gene": "NDUFV1", "siRNA no.": 3, "G2 robust z-score": -0.612, "G2 cells, % of GMNN control": -1.34}
{"gene": "SFPQ", "siRNA no.": 1, "G2 robust z-score": 2.44, "G2 cells, % of GMNN control": 20.1}
{"gene": "SFPQ", "siRNA no.": 2, "G2 robust z-score": 1, "G2 cells, % of GMNN control": 10}
{"gene": "SFPQ", "siRNA no.": 3, "G2 robust z-score": -0.371, "G2 cells, % of GMNN control": 0.357}
{"gene": "LMLN", "siRNA no.": 1, "G2 robust z-score": 0.891, "G2 cells, % of GMNN control": 9.23}
{"gene": "LMLN", "siRNA no.": 2, "G2 robust z-score": -0.453, "G2 cells, % of GMNN control": -0.222}
{"gene": "LMLN", "siRNA no.": 3, "G2 robust z-score": 4.66, "G2 cells, % of GMNN control": 35.8}

Only “G2 cells, % of GMNN control” (2 entries from above):
NDUFV1 #3 = -1.34
SFPQ #1 = 20.1
